The chains behind the UniProt entries cited, without tags or fusion partners. Where a name states a change or a piece, a line headed by the entry shows the natural chain unless it says otherwise.
UniProt Q13444: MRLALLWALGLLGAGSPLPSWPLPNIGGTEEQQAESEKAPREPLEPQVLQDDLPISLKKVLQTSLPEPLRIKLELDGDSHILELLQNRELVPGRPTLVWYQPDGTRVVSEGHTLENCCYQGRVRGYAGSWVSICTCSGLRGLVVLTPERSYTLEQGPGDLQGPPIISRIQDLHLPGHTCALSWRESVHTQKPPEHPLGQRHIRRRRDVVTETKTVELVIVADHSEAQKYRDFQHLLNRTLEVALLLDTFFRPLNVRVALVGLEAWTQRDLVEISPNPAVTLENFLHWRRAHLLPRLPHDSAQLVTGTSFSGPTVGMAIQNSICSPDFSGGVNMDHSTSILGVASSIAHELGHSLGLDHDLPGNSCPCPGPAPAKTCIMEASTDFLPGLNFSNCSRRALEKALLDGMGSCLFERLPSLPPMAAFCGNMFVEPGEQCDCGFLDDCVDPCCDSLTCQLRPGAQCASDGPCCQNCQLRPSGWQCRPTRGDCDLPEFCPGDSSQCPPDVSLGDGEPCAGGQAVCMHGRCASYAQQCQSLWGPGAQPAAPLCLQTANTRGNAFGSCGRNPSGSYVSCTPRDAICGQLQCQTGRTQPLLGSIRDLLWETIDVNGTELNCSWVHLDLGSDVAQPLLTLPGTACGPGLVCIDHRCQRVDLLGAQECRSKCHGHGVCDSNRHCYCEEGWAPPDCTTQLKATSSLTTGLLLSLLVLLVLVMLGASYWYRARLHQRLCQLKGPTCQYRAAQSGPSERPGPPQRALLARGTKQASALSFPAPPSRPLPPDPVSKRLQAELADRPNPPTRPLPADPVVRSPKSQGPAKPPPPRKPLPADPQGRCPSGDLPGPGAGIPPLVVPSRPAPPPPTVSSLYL
UniProt P11940: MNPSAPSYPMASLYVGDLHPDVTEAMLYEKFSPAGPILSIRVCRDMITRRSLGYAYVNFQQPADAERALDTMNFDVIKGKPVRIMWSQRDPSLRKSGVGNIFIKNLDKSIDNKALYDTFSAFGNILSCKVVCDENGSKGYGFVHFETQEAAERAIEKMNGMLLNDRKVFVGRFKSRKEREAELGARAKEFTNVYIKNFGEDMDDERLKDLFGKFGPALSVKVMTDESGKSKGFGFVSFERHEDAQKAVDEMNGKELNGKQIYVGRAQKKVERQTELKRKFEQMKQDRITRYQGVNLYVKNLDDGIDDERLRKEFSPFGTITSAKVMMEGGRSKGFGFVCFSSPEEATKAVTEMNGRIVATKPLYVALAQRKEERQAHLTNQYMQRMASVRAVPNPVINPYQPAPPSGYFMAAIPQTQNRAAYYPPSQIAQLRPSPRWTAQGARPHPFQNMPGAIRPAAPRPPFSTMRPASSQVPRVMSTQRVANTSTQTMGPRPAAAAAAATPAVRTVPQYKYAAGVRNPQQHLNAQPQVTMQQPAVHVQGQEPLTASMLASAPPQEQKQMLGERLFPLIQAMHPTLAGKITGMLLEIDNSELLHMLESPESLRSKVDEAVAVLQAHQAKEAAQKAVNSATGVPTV

According to paper PMC6161846:

Target: full-length ADAM15 (UniProt Q13444)
Assay: affinity purification with mass spectrometry; IP of lysates of ADAM15-transfected T/C28a4 cells with anti-ADAM15 antibodies, SDS/PAGE, band at ~75 kDa excised, peptide mass fingerprinting by MALDI-TOF

## poly(A) binding protein 1 (PABP) (from UniProt P11940 1-636)
  binding: binds

No constants are given. Whether binding was seen depends on the method and setting. Binding seen in cells or lysates may run through a third protein. A yes stands for co-enrichment or nearness to the bait. Other partners may have been found.
